Reference: patent publication US5830672A, “Elisa kit for the rapid determination of N-acetyltransferase (NAT2) phenotypes” (priority 1996, dated 1998)

Experiments:
Format in all cases: binding, rabbit
AAMU-Ab = assay: Competitive antigen ELISA, cross-reactivity of AAMU-Ab
Experimental: (§1) Four mature females New Zealand white rabbits (Charles River Canada, St-Constant, Que., Canada) were used for antibody production. The protocol employed in this study was approved by the McGill University Animal Care Committee in accordance with the guidelines from the Canadian Council on Animal Care. An isotonic saline solution (0.6 mL) containing […] of BSA conjugated antigen was emulsified with 0.6 mL of a complete Freund's adjuvant. 0.5 mL of the emulsion (100 mg of antigen) was injected per rabbit intramuscularly or subcutaneously. Rabbits were subsequently boosted at intervals of three weeks with 50 mg of antigen emulsified in incomplete Freund's adjuvant. Blood was collected by venipuncture of the ear 10-14 days after boosting. Antisera were stores at 4° C. in the presence of 0.01% sodium azide. Buffers and water without additives were filtered through millipore filters and kept for 1 week. BSA, antibodies, Tween™ 20 and horse radish peroxidase conjugates were added to these buffers and water just prior to use. Urine samples were usually collected 4 hours after drinking a cup of coffee (instant or brewed with approximately 100 mg of caffeine per cup) and stored at -80° C. They were diluted 10 times with sodium phosphate buffer (620 mosm, pH 7.50) and were subsequently diluted with water to give concentrations of AAMU and 1X no higher than 3×10^-6 M in the ELISA. […]

1X-Ab [1] = assay: Competitive antigen ELISA, cross-reactivity of 1X-Ab
Experimental: as §1

1X-Ab [2] = assay: Effect of the ratio 1U:1X on the determination of 1X concentration by ELISA; conditions: for apparent [1X]: fixed 1X concentration 3 × 10^-6 M; for apparent increase of 1X concentration: fixed 1X concentration 3×10^-6 M

| Structure (SMILES) | practical limit of detection (AAMU-Ab) | practical limit of detection (1X-Ab [1]) | apparent [1X] (1X-Ab [2]; 1U:1X ratio 0.0) | apparent [1X] (1X-Ab [2]; 1U:1X ratio 0.50) | apparent [1X] (1X-Ab [2]; 1U:1X ratio 1.00) | apparent [1X] (1X-Ab [2]; 1U:1X ratio 1.50) | apparent [1X] (1X-Ab [2]; 1U:1X ratio 2.00) | apparent [1X] (1X-Ab [2]; 1U:1X ratio 2.50) | apparent increase of 1X concentration (1X-Ab [2]; 1U:1X ratio 2.5) | apparent [1X] (1X-Ab [2]; 1U:1X ratio 3.00) | apparent increase of 1X concentration (1X-Ab [2]; 1U:1X ratio 3.0) | apparent [1X] (1X-Ab [2]; 1U:1X ratio 4.00) | apparent [1X] (1X-Ab [2]; 1U:1X ratio 5.00) | apparent [1X] (1X-Ab [2]; 1U:1X ratio 6.00) | apparent [1X] (1X-Ab [2]; 1U:1X ratio 8.00) |
| --- | --- | --- | --- | --- | --- | --- | --- | --- | --- | --- | --- | --- | --- | --- | --- |
| CC(=O)Nc1c(N)[nH]c(=O)n(C)c1=O | 200 nM |  |  |  |  |  |  |  |  |  |  |  |  |  |  |
| Cn1c(=O)[nH]c2nc[nH]c2c1=O [1-Methyl Xanthine (1X), 1-Methyl Xanthine] |  | 2 µM | 3.00 × 10^6 (M) | 2.75 × 10^6 (M) | 3.25 × 10^6 (M) | 3.25 × 10^6 (M) | 3.60 × 10^6 (M) | 3.65 × 10^6 (M) | 22% | 3.95 × 10^6 (M) | 32% | 4.20 × 10^6 (M) | 4.30 × 10^6 (M) | 4.50 × 10^6 (M) | 4.30 × 10^6 (M) |
